Assay [1] concerns the target T1, cLUC-D14 (Arabidopsis thaliana) (UniProt Q9SQR3).
T1 sequence: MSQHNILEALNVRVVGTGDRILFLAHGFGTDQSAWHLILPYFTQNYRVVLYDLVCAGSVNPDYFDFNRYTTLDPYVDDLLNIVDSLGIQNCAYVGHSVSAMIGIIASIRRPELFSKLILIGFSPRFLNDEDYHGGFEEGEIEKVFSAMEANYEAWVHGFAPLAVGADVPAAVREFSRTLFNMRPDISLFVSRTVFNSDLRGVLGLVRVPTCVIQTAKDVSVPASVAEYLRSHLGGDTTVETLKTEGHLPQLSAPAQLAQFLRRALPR
Description: split reporter; split-LUC complementation in N. benthamiana Nbd14 leaves; SMXL-nLUC and cLUC-D14 fusions transiently co-expressed with mCherry; luminescence before and 1 h after 10 μM GR24^5DS, normalized against mCherry fluorescence.

For assay [2], the target named is T2, cLUC-d14^S97A (Arabidopsis thaliana) (UniProt Q9SQR3).
T2 sequence: T1 sequence with S97A
Described as above.

For assay [3], the target named is T3, cLUC-d14^seto (Arabidopsis thaliana) (UniProt Q9SQR3).
T3 sequence: T1 sequence with P169L
The description is as above.

The target in assay [4] is T4, DWARF14 (D14) fused to GAL4-BD (Arabidopsis thaliana) (UniProt Q9SQR3).
T4 sequence: T1 sequence
Put plainly: two-hybrid; D14 or d14^seto fused to GAL4-BD, SMXL proteins and domains fused to GAL4-AD; serial dilutions of yeast on selective medium (-His low stringency, -His -Ade higher stringency) supplemented with 2 μM GR24^5DS.

For assay [5], the target named is T5, cLUC-d14^S97A (Arabidopsis thaliana), Q9SQR3.
T5 chain: T1 sequence with S97A
Put plainly: split reporter; split-LUC complementation in N. benthamiana Nbd14 leaves; SMXL-nLUC and cLUC-D14 fusions transiently co-expressed with mCherry; luminescence before and 1 h after 10 μM GR24^5DS, normalized against mCherry fluorescence. The settings on record: remark: other sources report otherwise.

Positions count from the first letter of the chain named. No constants are given. Whether binding was seen depends on the method and setting. For some assays here: Binding seen in cells or lysates may run through a third protein. Some entries that bind do so weakly or less than the wild type. Where a sequence is shown, tags or fusion partners need not be part of it.

B1: SMXL2-nLUC (protein, UniProt Q9M0C5 1-924)
chain: MRADLITIQQTLTPEAATVLNQSIAEATRRNHGHTTPLHVAATLLSSSSGYLRQACIKSHPNSSHPLQCRALELCFSVALERLPTTSTTTTTTSSSSSSSPSQTQEPLLSNALTAALKRAQAHQRRGCPEQQQQPLLAVKVELEQLIISILDDPSVSRVMREASFSSPAVKSAIEQSLIGNSVSNSRQTGSPGIINPSAIGFGYRSVPAPVNRNLYLNPRLQQPGVGMQSGMMIQRTDEAKRVIEIMIRTRKRNPVLVGDSEPHILVKEILEKIENGEFSDGALRNFQVIRLEKELVSQLATRLGEISGLVETRIGGGGVVLDLGDLKWLVEHPAANGGAVVEMRKLLERYKGRLCFIGTATCETYLRCQVYYPSMENDWDLQAIPIAAKSSLPAIFPRLGSNNNNNAMLLSNNIISIESISPTRSFQIPMSKMSCCSRCLQSYENDVAKVEKDLTGDNRSVLPQWLQNAKANDDGDKKLTKDQQIVELQKKWNDLCLRLHPNQSVSERIAPSTLSMMKINTRSDITPPGSPVGTDLVLGRPNRGLSSPEKKTREARFGKLGDSFDIDLFKKLLKGLAKSVWWQHDAASSVAAAITECKHGNGKSKGDIWLMFTGPDRAGKSKMASALSDLVSGSQPITISLGSSSRMDDGLNIRGKTALDRFAEAVRRNPFAVIVLEDIDEADILLRNNVKIAIERGRICDSYGREVSLGNVIIILTANSSLGSAKNVASIDETRLESLVNKGWELRLSVCNSSKTRKRKPNWLYSDNDQTKQRKEICFDLNEAAEFDSSSDVTVEHDQEDNGNLVHKLVGLVDDAILFRPVDFDSIKSKTAESLKKRFSNGLADGLTVEIEDDALERIAGAIWLSKISLEEWLEEAMGSSLNSVKSRVSSSEDSVIRIELEDDLNDRISGGYLPSSIRTVVV
As for B1, the binding result in assay [1], in assay [2] and in assay [3] was “binds” throughout.

B2: SMAX1-LIKE 2 (SMXL2) in the yeast two-hybrid assay (protein, UniProt Q9M0C5 1-924)
chain: B1 chain
B2: the binding result in assay [4] is on record as “binds”.

B3: SMXL7-nLUC, O80875 1-1002 (protein)
chain: MPTPVTTARQCLTEETARALDDAVSVARRRSHAQTTSLHAVSGLLTMPSSILREVCISRAAHNTPYSSRLQFRALELCVGVSLDRLPSSKSTPTTTVEEDPPVSNSLMAAIKRSQATQRRHPETYHLHQIHGNNNTETTSVLKVELKYFILSILDDPIVSRVFGEAGFRSTDIKLDVLHPPVTSQFSSRFTSRSRIPPLFLCNLPESDSGRVRFGFPFGDLDENCRRIGEVLARKDKKNPLLVGVCGVEALKTFTDSINRGKFGFLPLEISGLSVVSIKISEVLVDGSRIDIKFDDLGRLKSGMVLNLGELKVLASDVFSVDVIEKFVLKLADLLKLHREKLWFIGSVSSNETYLKLIERFPTIDKDWNLHLLPITSSSQGLYPKSSLMGSFVPFGGFFSSTSDFRIPSSSSMNQTLPRCHLCNEKYEQEVTAFAKSGSMIDDQCSEKLPSWLRNVEHEHEKGNLGKVKDDPNVLASRIPALQKKWDDICQRIHQTPAFPKLSFQPVRPQFPLQLGSSSQTKMSLGSPTEKIVCTRTSESFQGMVALPQNPPHQPGLSVKISKPKHTEDLSSSTTNSPLSFVTTDLGLGTIYASKNQEPSTPVSVERRDFEVIKEKQLLSASRYCKDFKSLRELLSRKVGFQNEAVNAISEIVCGYRDESRRRNNHVATTSNVWLALLGPDKAGKKKVALALAEVFCGGQDNFICVDFKSQDSLDDRFRGKTVVDYIAGEVARRADSVVFIENVEKAEFPDQIRLSEAMRTGKLRDSHGREISMKNVIVVATISGSDKASDCHVLEEPVKYSEERVLNAKNWTLQIKLADTSNVNKNGPNKRRQEEAETEVTELRALKSQRSFLDLNLPVDEIEANEDEAYTMSENTEAWLEDFVEQVDGKVTFKLIDFDELAKNIKRNILSLFHLSFGPETHLEIENDVILKILAALRWSSDEEKTFDQWLQTVLAPSFAKARQKCVPAAPFSVKLVASRESPAEEETTGIQQFPARVEVI
On to B3, for which the binding result in assay [5] is on record as “binds”.

Values taken from paper PMC9073322.
